# Test results from US20220175771A1, “CANCER TREATMENT MODALITIES” (priority 2017, published 2022).
# Assays:
# Assay in all cases: cells
# [1] = test system: NCI-H23; conditions: Homo sapiens, NCI-H23, read-out: Tax IC50
# [2] = test system: NCI-H522; conditions: Homo sapiens, NCI-H522, read-out: Tax IC50
# [3] = test system: NCI-H661; conditions: Homo sapiens, NCI-H661, read-out: Tax IC50
# [4] = test system: NCI-H1299; conditions: Homo sapiens, NCI-H1299, read-out: Tax IC50
# [5] = test system: NCIH1703; conditions: Homo sapiens, NCI-H1703, read-out: Tax IC50
# [6] = test system: NCIH2023; conditions: NCI-H2023, read-out: Tax IC50
# [7] = test system: NCIH1568; conditions: NCI-H1568, read-out: Tax IC50
# [8] = test system: NCIH838; conditions: Homo sapiens, NCI-H838, read-out: Tax IC50
# [9] = test system: NCIH1793; conditions: Homo sapiens, NCI-H1793, read-out: Tax IC50
# [10] = test system: NCIH2030; conditions: Homo sapiens, NCI-H2030, read-out: Tax IC50
# [11] = test system: A549; conditions: Homo sapiens, A549, read-out: Tax IC50
# [12] = test system: NCIH1573; conditions: Homo sapiens, NCI-H1573, read-out: Tax IC50
# [13] = test system: NCIH1944; conditions: Homo sapiens, NCI-H1944, read-out: Tax IC50
# [14] = test system: NCIH2085; conditions: read-out: Tax IC50
# [15] = test system: NCIH1581; conditions: Homo sapiens, NCI-H1581, read-out: Tax IC50
# [16] = test system: NCIH2291; conditions: Homo sapiens, NCI-H2291, read-out: Tax IC50
# [17] = test system: NCIH1734; conditions: Homo sapiens, NCI-H1734, read-out: Tax IC50
# [18] = test system: Calu-6; conditions: Homo sapiens, Calu-6, read-out: Tax IC50
# [19] = test system: NCI-H460; conditions: Homo sapiens, NCI-H460, read-out: Tax IC50
# [20] = test system: NCIH810; conditions: Homo sapiens, NCI-H810, read-out: Tax IC50
# [21] = test system: NCIH2172; conditions: NCI-H2172, read-out: Tax IC50
# [22] = test system: NCIH1993; conditions: Homo sapiens, NCI-H1993, read-out: Tax IC50
# [23] = test system: NCIH2110; conditions: NCI-H2110, read-out: Tax IC50
# [24] = test system: NCI-H441; conditions: Homo sapiens, NCI-H441, read-out: Tax IC50
# [25] = test system: NCIH2122; conditions: Homo sapiens, NCI-H2122, read-out: Tax IC50
# [26] = test system: NCIH1373; conditions: Homo sapiens, NCI-H1373, read-out: Tax IC50
smiles,measurement,setting,value
"CCN(c1cc(-c2ccc(CN3CCOCC3)cc2)cc(C(=O)NCc2c(C)cc(C)[nH]c2=O)c1C)C1CCOCC1 [Compound 44, tazemetostat]",IC50,[1],≥ 10 µM
same,IC50,[2],7 µM
same,IC50,[3],4 µM
same,IC50,[4],≥ 10 µM
same,IC50,[5],5.4 µM
same,IC50,[6],≥ 10 µM
same,IC50,[7],≥ 10 µM
same,IC50,[8],≥ 10 µM
same,IC50,[9],9 µM
same,IC50,[10],≥ 10 µM
same,IC50,[11],≥ 10 µM
same,IC50,[12],≥ 10 µM
same,IC50,[13],≥ 10 µM
same,IC50,[14],≥ 10 µM
same,IC50,[15],≥ 10 µM
same,IC50,[16],≥ 10 µM
same,IC50,[17],≥ 10 µM
same,IC50,[18],4.5 µM
same,IC50,[19],≥ 10 µM
same,IC50,[20],2400 nM
same,IC50,[21],≥ 10 µM
same,IC50,[22],≥ 10 µM
same,IC50,[23],≥ 10 µM
same,IC50,[24],≥ 10 µM
same,IC50,[25],≥ 10 µM
same,IC50,[26],≥ 10 µM
